Literature values, collected in US20070173463A1, “Method and composition for treating otitis media” (priority 2006, published 2007).

Details: topical use in the ear; cited from earlier work

O=C(O)c1cn(C2CC2)c2cc(N3CCNCC3)c(F)cc2c1=O [ciprofloxacin]
toxicity for the inner ear (ototoxicity): demonstrated lack of toxicity for the inner ear
